In publication PMC6161326:
Results are given in words; binding and its absence hold for the method and conditions named. For part of these data: Binding seen in cells or lysates may run through a third protein. Some results given as binding are weak or reduced against the parent protein; the word gives no strength. Where a sequence is shown, tags or fusion partners need not be part of it. Blank lines part the entries; values can stand above or below the binder they belong to.

Protein sequences, listed by entry. Tags and fused reporters are not part of them. Lines headed by an entry give the natural chain unless they say otherwise; changes in a name come on top.
UniProt Q9MAI5: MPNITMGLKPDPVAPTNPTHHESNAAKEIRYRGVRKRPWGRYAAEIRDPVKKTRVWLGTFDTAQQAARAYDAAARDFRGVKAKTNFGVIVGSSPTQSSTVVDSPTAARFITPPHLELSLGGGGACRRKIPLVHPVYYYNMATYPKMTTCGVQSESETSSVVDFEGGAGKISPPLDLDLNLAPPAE

What was measured:
[1] = biological target: ETHYLENE RESPONSE FACTOR 8 (ERF8), yeast two-hybrid fusion (Arabidopsis thaliana) (UniProt Q9MAI5); test: two-hybrid; yeast two-hybrid (Y2H); bait, prey and reporters not given
[2] = biological target: ETHYLENE RESPONSE FACTOR 8 (ERF8), BiFC fusion (Arabidopsis thaliana) (UniProt Q9MAI5); test: split reporter; BiFC with split YFP (pBWGYn2 / pBWGYc2), Agrobacterium-mediated transient co-expression in N. benthamiana leaves, confocal microscopy; signal in the nucleus
[3] = biological target: ERF8^L176A/L178A, BiFC fusion (Arabidopsis thaliana) (UniProt Q9MAI5); test: as above

- binding [1]: binds
B1: MITOGEN-… PROTEIN KINASE 11 (MPK11), yeast two-hybrid fusion (enzyme, UniProt Q9LMM5 1-369)
chain: MSIEKPFFGDDSNRGVSINGGRYVQYNVYGNLFEVSKKYVPPLRPIGRGASGIVCAAWNSETGEEVAIKKIGNAFGNIIDAKRTLREIKLLKHMDHDNVIAIIDIIRPPQPDNFNDVHIVYELMDTDLHHIIRSNQPLTDDHSRFFLYQLLRGLKYVHSANVLHRDLKPSNLLLNANCDLKIGDFGLARTKSETDFMTEYVVTRWYRAPELLLNCSEYTAAIDIWSVGCILGEIMTREPLFPGRDYVQQLRLITELIGSPDDSSLGFLRSDNARRYVRQLPQYPRQNFAARFPNMSVNAVDLLQKMLVFDPNRRITVDEALCHPYLAPLHEYNEEPVCVRPFHFDFEQPSLTEENIKELIYRESVKFNP

- binding [2]: binds
- binding [3]: binds
B2: MITOGEN-… PROTEIN KINASE 11 (MPK11), BiFC fusion (enzyme, UniProt Q9LMM5 1-369)
chain: B1 chain
